Results deposited as PubChem BioAssay AID504774 (Drosophila RNAi Screening Center, 2011)

- Test: 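Fly genes whose loss alters survival after alkylation damage to DNA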 (primary screen)
- Cells: Drosophila Kc167 cells
- Knock-down reagent: long dsRNA against Drosophila genes, about 0.25 µg dsRNA per well
- Time to read-out: about 6 days: 3 days knock-down, then 3 days with or without MMS
- Treatment: methyl methanesulphonate 0.004% (w/v) for 3 days after knock-down
- Measured: 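Viability in wells given MMS, read as ATP luminescence, normalised by quantiles plate by plate and averaged across replicates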
- Scale: mean viability with MMS and viability with MMS: higher = more surviving cells after MMS
In all, the deposit lists about 23,000 reagents; this is a random part of those with a known target gene and a result. 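Values are quantile-normalised luminescence on an arbitrary scale; higher means more cells surviving MMS.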 A plus sign joins genes that one reagent is predicted to hit.

gene knocked down | dsRNA | mean viability with MMS | viability with MMS, replicate 1 | viability with MMS, replicate 2
CG1172 | DRSC12182 | 3.65e6 | 4.17e6 | 4.08e6
CG1172 | DRSC21954 | 3.56e6 | 4.01e6 | 4.05e6
CG18605 | DRSC06772 | 3.38e6 | 3.90e6 | 3.72e6
beat-Ic (beaten path Ic) | DRSC01524 | 3.65e6 | 4.25e6 | 3.97e6
beat-Ic (beaten path Ic) | DRSC03491 | 3.40e6 | 3.84e6 | 3.86e6
CG14543 | DRSC14887 | 3.27e6 | 3.67e6 | 3.71e6
Ogdh (Oxoglutarate dehydrogenase) | DRSC09854 | 3.77e6 | 4.29e6 | 4.14e6
Ogdh (Oxoglutarate dehydrogenase) | DRSC09855 | 3.54e6 | 3.98e6 | 4.05e6
FucT6 (alpha1,6-fucosyltransferase) | DRSC19848 | 3.60e6 | 4.30e6 | 3.83e6
alpha-Est6 (alpha-Esterase-6) | DRSC12618 | 3.33e6 | 3.73e6 | 3.78e6
SCAP (SREBP cleavage activating protein) | DRSC04869 | 3.57e6 | 4.25e6 | 3.86e6
SCAP (SREBP cleavage activating protein) | DRSC04907 | 3.46e6 | 3.86e6 | 3.95e6
Reg-2 (Rhythmically expressed gene 2) | DRSC08690 | 3.22e6 | 3.73e6 | 3.72e6
PGRP-SC2 (Peptidoglycan recognition protein SC2) | DRSC06481 | 3.53e6 | 3.87e6 | 4.15e6
CG3544 | DRSC00613 | 3.50e6 | 3.85e6 | 4.04e6
nAChRalpha3 (nicotinic Acetylcholine Receptor alpha3) | DRSC18800 | 3.41e6 | 3.96e6 | 3.76e6
Atg12 (Autophagy-related 12) | DRSC09803 | 3.51e6 | 4.02e6 | 3.94e6
SpdS (Spermidine Synthase) | DRSC16408 | 3.72e6 | 4.15e6 | 4.14e6
aqz (aaquetzalli) | DRSC16570 | 3.60e6 | 4.15e6 | 4.02e6
CG6071 | DRSC10579 | 3.43e6 | 3.86e6 | 3.89e6
CG5506 | DRSC10511 | 3.60e6 | 4.14e6 | 4.01e6
MCU (Mitochondrial calcium uniporter) | DRSC10339 | 3.47e6 | 3.95e6 | 3.93e6
CG42662 + CG30080 | DRSC05571 | 3.59e6 | 4.15e6 | 3.94e6
CG13314 | DRSC09985 | 3.43e6 | 3.88e6 | 3.88e6
AIMP1 (aaRS-interacting multifunctional protein 1) | DRSC07118 | 3.68e6 | 4.06e6 | 4.18e6
CG13455 | DRSC10002 | 3.49e6 | 3.95e6 | 3.95e6
CG9757 | DRSC16557 | 3.60e6 | 4.07e6 | 4.11e6
CG9757 | DRSC21707 | 3.42e6 | 3.90e6 | 3.90e6
jtb (jetboil) | DRSC06868 | 3.49e6 | 3.90e6 | 4.00e6
CG5149 | DRSC02819 | 3.57e6 | 3.99e6 | 4.11e6
CG10591 | DRSC09748 | 3.59e6 | 4.00e6 | 4.15e6
GATAd | DRSC02803 | 3.45e6 | 4.02e6 | 3.77e6
DptA (Diptericin A) | DRSC07404 | 3.43e6 | 3.97e6 | 3.78e6
Mondo | DRSC02667 | 3.50e6 | 4.06e6 | 4.18e6
Mondo | DRSC02668 | 3.41e6 | 3.81e6 | 3.87e6
Mondo | DRSC22006 | 3.25e6 | 3.85e6 | 3.78e6
Taz (Tafazzin) | DRSC07704 | 3.90e6 | 4.04e6 | 3.99e6
Taz (Tafazzin) | DRSC22625 | 3.46e6 | 3.95e6 | 3.94e6
roh (reduction of Rh1) | DRSC04003 | 3.40e6 | 3.88e6 | 3.77e6
CG42560 + CG42559 | DRSC21873 | 3.61e6 | 4.03e6 | 4.10e6
CG12498 | DRSC18635 | 3.44e6 | 3.97e6 | 3.83e6
CG31704 | DRSC22118 | 3.39e6 | 3.87e6 | 3.91e6
CG17122 | DRSC10245 | 3.66e6 | 4.12e6 | 4.14e6
CG31097 | DRSC14666 | 3.51e6 | 3.91e6 | 4.03e6
Snx27 (Sorting nexin 27) | DRSC17786 | 3.65e6 | 4.33e6 | 3.94e6
Snx27 (Sorting nexin 27) | DRSC18282 | 3.38e6 | 4.00e6 | 3.66e6
Snx27 (Sorting nexin 27) | DRSC18284 | 3.47e6 | 4.18e6 | 3.72e6
ACXC (Adenylyl cyclase X C) | DRSC00846 | 3.51e6 | 3.97e6 | 4.00e6
CG11251 | DRSC09825 | 3.61e6 | 4.09e6 | 4.05e6
CG12106 | DRSC17805 | 3.52e6 | 3.94e6 | 3.99e6
CG3769 | DRSC02723 | 3.61e6 | 3.97e6 | 4.22e6
CG8520 | DRSC07206 | 3.60e6 | 4.00e6 | 4.18e6
CG18810 | DRSC02701 | 3.58e6 | 4.11e6 | 4.02e6
M7BP (Myosin-7a binding protein) | DRSC05932 | 3.45e6 | 4.05e6 | 3.73e6
TfIIEbeta (Transcription factor IIEbeta) | DRSC08701 | 3.15e6 | 3.63e6 | 3.60e6
RIC-3 (RIC3 acetylcholine receptor chaperone) | DRSC04243 | 3.70e6 | 4.06e6 | 4.36e6
RIC-3 (RIC3 acetylcholine receptor chaperone) | DRSC04543 | 3.39e6 | 3.76e6 | 3.87e6
Pgant8 (Polypeptide N-Acetylgalactosaminyltransferase 8) | DRSC10801 | 3.48e6 | 4.07e6 | 3.80e6
SNRPG (Small nuclear ribonucleoprotein G) | DRSC20207 | 3.29e6 | 3.72e6 | 3.64e6
Cog1 (Component of oligomeric golgi complex 1) | DRSC15661 | 3.77e6 | 4.30e6 | 4.24e6
alphaTub84D (alpha-Tubulin at 84D) | DRSC12623 | 3.37e6 | 3.89e6 | 3.79e6
RASSF8 (Ras association domain family member 8) | DRSC15707 | 3.68e6 | 4.13e6 | 4.17e6
CG5157 | DRSC10488 | 3.48e6 | 3.98e6 | 3.89e6
beta4GalNAcTB (beta1,4-N-acetylgalactosaminyltransferase B) | DRSC14869 | 3.67e6 | 4.29e6 | 4.04e6
can (cannonball) | DRSC10664 | 1.88e6 | 4.04e6 | –
CG5810 | DRSC15880 | 3.42e6 | 3.86e6 | 3.93e6
CG5810 | DRSC21921 | 3.55e6 | 4.03e6 | 4.00e6
CG13423 | DRSC06386 | 3.36e6 | 3.75e6 | 3.82e6

Part of the list above, set out differently.
| gene knocked down | dsRNA | mean viability with MMS | viability with MMS, replicate 1 | viability with MMS, replicate 2 |
| --- | --- | --- | --- | --- |
| Reg-2 (Rhythmically expressed gene 2) | DRSC08690 | 3.22e6 | 3.73e6 | 3.72e6 |
| PGRP-SC2 (Peptidoglycan recognition protein SC2) | DRSC06481 | 3.53e6 | 3.87e6 | 4.15e6 |
| CG3544 | DRSC00613 | 3.50e6 | 3.85e6 | 4.04e6 |
| nAChRalpha3 (nicotinic Acetylcholine Receptor alpha3) | DRSC18800 | 3.41e6 | 3.96e6 | 3.76e6 |
